# Earlier results, collected in patent US20060111442A1, “Use of methyl pyruvate to increase cellular energy production downstream of glycolysis for the PARP-1 ablation of HIV without necrotic cell death caused by continuous, chronic PARP-1 activation through the concomitant depletion of ATP and NAD” (priority 2004, published 2006).
# For at least one compound, name, drawing or mass did not settle the structure.
# What was measured:
# [1] = test system: MIN6 cells, isolated rat islets
# [2] = test system: HIV-1
# [3] = test system: human glioblastoma cell lines (A172, U87-MG, M059K, M059J); settings: all cell lines
# [4] = 0.3 mg kg-1 i.v. 30 min prior to ischaemia
smiles,measurement,setting,value
O=C(O)C(Cl)Cl [dichloroacetate],"glucose-induced increases in mitochondrial pyridine nucleotide levels, cytosolic ATP, insulin secretion",[1],without effect
CC1(COc2ccc(CC3SC(=O)NC3=O)cc2)CCCCC1 (centres unmarked) [ciglitazone],HIV-1 replication,[2]; acutely infected human MDM,inhibited HIV-1 replication in a dose-dependent manner
same,HIV-1 mRNA levels,[2]; reverse transcriptase PCR,suppressed HIV-1 mRNA levels
CN(CCOc1ccc(CC2SC(=O)NC2=O)cc1)c1ccccn1 (centres unmarked) [rosiglitazone],proliferation,[3],inhibited proliferation
same,"fall in mean arterial blood pressure, mortality rate, MPO activity, MDA levels, TNF-alpha and IL-1 beta, histological gut injury",[4],significantly reduced
